Laboratory results published in the supplement of paper PMC7661543.
± gives the standard deviation of the averaged measurements. Differences between knockout arms are mostly noise.

Test system: ZR-75-1
Experiment: relative cell number vs DMSO control (72 h) (% of DMSO); higher = less growth inhibition (more cells)
Protocol: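 QMAP-Seq: a pool of 5 breast cancer cell lines (ZR-75-1, SKBR3, HCC-38, MDA-MB-231, BT-20), each carrying 12 doxycycline-inducible Cas9 sgRNA perturbations (11 knockouts plus non-targeting sgNT), was treated with compounds for 72 h at four 10-fold doses (10 nM-10 uM or 1 nM-1 uM range). Barcodes were amplified and sequenced, and cell number was interpolated from 293T spike-in standard curves. The result is expressed as % of the median of DMSO wells. Two biological replicates.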

[1] = sgRNA knockout: sgATF3, 1000 nM
[2] = sgRNA knockout: sgATF3, 10000 nM
[3] = sgRNA knockout: sgATF4, 1000 nM
[4] = sgRNA knockout: sgATF4, 10000 nM
[5] = sgRNA knockout: sgATF6, 1000 nM
[6] = sgRNA knockout: sgATF6, 10000 nM
[7] = sgRNA knockout: sgATG7, 1000 nM
[8] = sgRNA knockout: sgATG7, 10000 nM
[9] = sgRNA knockout: sgERN1, 1000 nM
[10] = sgRNA knockout: sgERN1, 10000 nM
[11] = sgRNA knockout: sgHSF2, 1000 nM
[12] = sgRNA knockout: sgHSF2, 10000 nM
[13] = sgRNA knockout: sgNFE2L2, 10 nM
[14] = sgRNA knockout: sgNFE2L2, 100 nM
[15] = sgRNA knockout: sgNFE2L2, 1000 nM
[16] = sgRNA knockout: sgNFE2L2, 10000 nM
[17] = sgRNA knockout: sgSLC35F2, 10 nM
[18] = sgRNA knockout: sgSLC35F2, 100 nM
[19] = sgRNA knockout: sgSLC35F2, 1000 nM
[20] = sgRNA knockout: sgSLC35F2, 10000 nM
[21] = sgRNA knockout: sgXBP1, 1000 nM
[22] = sgRNA knockout: sgXBP1, 10000 nM

COC(=O)Nc1nc2cc(C(=O)c3ccccc3)ccc2[nH]1 [Mebendazole]
relative cell number (sgRNA knockout: sgATF3, 10 nM): 107 ± 21 | relative cell number (sgRNA knockout: sgATF3, 100 nM): 62.9 ± 20 | relative cell number [1]: 54.3 ± 8.5 | relative cell number [2]: 16.1 ± 4.9 | relative cell number (sgRNA knockout: sgATF4, 10 nM): 114 ± 25 | relative cell number (sgRNA knockout: sgATF4, 100 nM): 49.7 ± 21 | relative cell number [3]: 34 ± 2.8 | relative cell number [4]: 23.9 ± 3.4 | relative cell number (sgRNA knockout: sgATF6, 10 nM): 82.6 ± 49 | relative cell number (sgRNA knockout: sgATF6, 100 nM): 62.9 ± 9.3 | relative cell number [5]: 39.1 ± 7.4 | relative cell number [6]: 13.1 ± 4.9 | relative cell number (sgRNA knockout: sgATG7, 10 nM): 111 ± 59 | relative cell number (sgRNA knockout: sgATG7, 100 nM): 72.4 ± 29 | relative cell number [7]: 34.2 ± 3.6 | relative cell number [8]: 17 ± 5 | relative cell number (sgRNA knockout: sgERN1, 10 nM): 73.9 ± 9.8 | relative cell number (sgRNA knockout: sgERN1, 100 nM): 64.6 ± 9.7 | relative cell number [9]: 37.2 ± 11 | relative cell number [10]: 23.6 ± 7.1 | relative cell number (sgRNA knockout: sgHSF2, 10 nM): 106 ± 2.6 | relative cell number (sgRNA knockout: sgHSF2, 100 nM): 72.14 ± 0.44 | relative cell number [11]: 30.1 ± 0.69 | relative cell number [12]: 15.5 ± 3.8 | relative cell number [13]: 141 ± 17 | relative cell number [14]: 58.1 ± 6.1 | relative cell number [15]: 35.4 ± 4.9 | relative cell number [16]: 15.85 ± 0.052 | relative cell number [17]: 63.669 ± 0.0092 | relative cell number [18]: 84.85 ± 0.27 | relative cell number [19]: 34.3 ± 14 | relative cell number [20]: 11.5 ± 9.4 | relative cell number (sgRNA knockout: sgXBP1, 10 nM): 112 ± 17 | relative cell number (sgRNA knockout: sgXBP1, 100 nM): 67.4 ± 9.7 | relative cell number [21]: 36.84 ± 0.33 | relative cell number [22]: 18.6 ± 0.36

CN1C(=O)C(Cc2c[nH]c3ccccc23)NC1=S (stereo not drawn) [Necrostatin1]
relative cell number (sgRNA knockout: sgATF3, 10 nM): 90.4 ± 2.5 | relative cell number (sgRNA knockout: sgATF3, 100 nM): 97.8 ± 14 | relative cell number [1]: 70.2 ± 9 | relative cell number [2]: 44.2 ± 15 | relative cell number (sgRNA knockout: sgATF4, 10 nM): 78.8 ± 36 | relative cell number (sgRNA knockout: sgATF4, 100 nM): 73 ± 14 | relative cell number [3]: 54.7 ± 9 | relative cell number [4]: 47.9 ± 16 | relative cell number (sgRNA knockout: sgATF6, 10 nM): 102 ± 26 | relative cell number (sgRNA knockout: sgATF6, 100 nM): 64.5 ± 35 | relative cell number [5]: 45 ± 16 | relative cell number [6]: 46.3 ± 9.2 | relative cell number (sgRNA knockout: sgATG7, 10 nM): 99.6 ± 23 | relative cell number (sgRNA knockout: sgATG7, 100 nM): 68.4 ± 2.8 | relative cell number [7]: 56.4 ± 8.5 | relative cell number [8]: 41.3 ± 12 | relative cell number (sgRNA knockout: sgERN1, 10 nM): 109.9 ± 0.42 | relative cell number (sgRNA knockout: sgERN1, 100 nM): 90.5 ± 4.7 | relative cell number [9]: 72.8 ± 15 | relative cell number [10]: 63.9 ± 14 | relative cell number (sgRNA knockout: sgHSF2, 10 nM): 97.3 ± 1.9 | relative cell number (sgRNA knockout: sgHSF2, 100 nM): 68.5 ± 11 | relative cell number [11]: 78.5 ± 13 | relative cell number [12]: 52.6 ± 14 | relative cell number [13]: 95.3 ± 6.7 | relative cell number [14]: 84.5 ± 8.4 | relative cell number [15]: 80.9 ± 2.2 | relative cell number [16]: 55.9 ± 4.9 | relative cell number [17]: 99.4 ± 8 | relative cell number [18]: 52.3 ± 24 | relative cell number [19]: 62.7 ± 32 | relative cell number [20]: 54.5 ± 17 | relative cell number (sgRNA knockout: sgXBP1, 10 nM): 89.8 ± 12 | relative cell number (sgRNA knockout: sgXBP1, 100 nM): 83.5 ± 9.5 | relative cell number [21]: 96.5 ± 3.9 | relative cell number [22]: 57.9 ± 3.5

COc1cccc2cc(-c3nc([C@H]4CC[C@H](C(=O)O)CC4)n4ncnc(N)c34)[nH]c12 [OSI027]
relative cell number (sgRNA knockout: sgATF3, 10 nM): 107 ± 34 | relative cell number (sgRNA knockout: sgATF3, 100 nM): 74.8 ± 2.4 | relative cell number [1]: 59.3 ± 9.6 | relative cell number [2]: 29.3 ± 1.5 | relative cell number (sgRNA knockout: sgATF4, 10 nM): 109 ± 24 | relative cell number (sgRNA knockout: sgATF4, 100 nM): 161 ± 54 | relative cell number [3]: 73.9 ± 5 | relative cell number [4]: 33.1 ± 15 | relative cell number (sgRNA knockout: sgATF6, 10 nM): 68.6 ± 3.5 | relative cell number (sgRNA knockout: sgATF6, 100 nM): 109 ± 22 | relative cell number [5]: 56.9 ± 12 | relative cell number [6]: 22.2 ± 6.5 | relative cell number (sgRNA knockout: sgATG7, 10 nM): 72.6 ± 24 | relative cell number (sgRNA knockout: sgATG7, 100 nM): 130 ± 14 | relative cell number [7]: 60.3 ± 35 | relative cell number [8]: 17.1 ± 2.6 | relative cell number (sgRNA knockout: sgERN1, 10 nM): 84.5 ± 3.1 | relative cell number (sgRNA knockout: sgERN1, 100 nM): 115 ± 42 | relative cell number [9]: 66.8 ± 16 | relative cell number [10]: 37.9 ± 3.9 | relative cell number (sgRNA knockout: sgHSF2, 10 nM): 104 ± 12 | relative cell number (sgRNA knockout: sgHSF2, 100 nM): 99.6 ± 31 | relative cell number [11]: 59.2 ± 1.7 | relative cell number [12]: 27.5 ± 5.1 | relative cell number [13]: 107 ± 22 | relative cell number [14]: 109 ± 15 | relative cell number [15]: 69.1 ± 19 | relative cell number [16]: 29.8 ± 4.2 | relative cell number [17]: 90.8 ± 33 | relative cell number [18]: 105 ± 56 | relative cell number [19]: 40 ± 11 | relative cell number [20]: 33.2 ± 6.1 | relative cell number (sgRNA knockout: sgXBP1, 10 nM): 95.033 ± 0.085 | relative cell number (sgRNA knockout: sgXBP1, 100 nM): 106 ± 8.3 | relative cell number [21]: 73.2 ± 19 | relative cell number [22]: 28 ± 4
